Results are given in words; binding and its absence hold for the method and conditions named. Binding seen in cells or lysates may run through a third protein. Some binding calls cover weakened binding; strength is not graded here.
Target: E2F1 (human (endogenous in PC9)) (UniProt Q01094)
Assay: co-IP; PC9 cell lysate in RIPA buffer with protease inhibitors; IP with E2F1-specific, MDM2-specific or nonspecific IgG antibody at 4 °C for 4 h or overnight, protein A/G agarose beads, four washes with PBS containing 0.1% Triton X-100; blots probed for E2F1 and MDM2

Amino acid sequences for entries named in this document (tags omitted).
UniProt Q01094: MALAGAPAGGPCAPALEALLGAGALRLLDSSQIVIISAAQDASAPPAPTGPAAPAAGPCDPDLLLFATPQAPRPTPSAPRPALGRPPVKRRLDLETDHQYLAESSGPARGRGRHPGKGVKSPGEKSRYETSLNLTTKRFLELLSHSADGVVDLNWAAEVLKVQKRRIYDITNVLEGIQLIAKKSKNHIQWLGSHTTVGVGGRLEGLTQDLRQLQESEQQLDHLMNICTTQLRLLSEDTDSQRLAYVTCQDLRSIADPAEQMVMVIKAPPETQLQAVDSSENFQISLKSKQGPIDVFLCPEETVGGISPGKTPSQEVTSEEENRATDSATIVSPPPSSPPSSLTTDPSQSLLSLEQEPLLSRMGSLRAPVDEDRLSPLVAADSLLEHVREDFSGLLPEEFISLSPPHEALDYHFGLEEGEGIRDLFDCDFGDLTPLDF
UniProt Q00987: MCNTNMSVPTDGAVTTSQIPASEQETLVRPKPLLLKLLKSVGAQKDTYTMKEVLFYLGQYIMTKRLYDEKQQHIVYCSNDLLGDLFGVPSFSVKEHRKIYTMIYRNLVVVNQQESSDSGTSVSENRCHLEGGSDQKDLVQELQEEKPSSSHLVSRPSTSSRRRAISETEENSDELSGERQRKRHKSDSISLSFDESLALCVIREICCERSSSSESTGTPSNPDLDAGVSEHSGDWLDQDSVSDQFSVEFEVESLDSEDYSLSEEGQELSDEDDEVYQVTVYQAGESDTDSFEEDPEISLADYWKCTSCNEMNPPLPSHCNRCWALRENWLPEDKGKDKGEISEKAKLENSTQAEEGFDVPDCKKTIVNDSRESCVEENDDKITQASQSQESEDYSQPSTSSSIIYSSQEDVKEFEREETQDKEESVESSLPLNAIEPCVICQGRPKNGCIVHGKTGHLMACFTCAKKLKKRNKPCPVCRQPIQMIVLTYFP

In the case of MDM2 (from UniProt Q00987 1-491), the binding is reported as “binds”.

Source: article PMC12676955
